We go through two substances from PMC4819448, “Co-operative and Hierarchical Binding of c-FLIP and Caspase-8: A Unified Model Defines How c-FLIP Isoforms Differentially Control Cell Fate” (Molecular Cell, 2016).

By UniProt entry, the sequences of proteins in these tests, tags left out. Where a name states a change or a piece, a line headed by the entry shows the natural chain unless it says otherwise.
UniProt O00220: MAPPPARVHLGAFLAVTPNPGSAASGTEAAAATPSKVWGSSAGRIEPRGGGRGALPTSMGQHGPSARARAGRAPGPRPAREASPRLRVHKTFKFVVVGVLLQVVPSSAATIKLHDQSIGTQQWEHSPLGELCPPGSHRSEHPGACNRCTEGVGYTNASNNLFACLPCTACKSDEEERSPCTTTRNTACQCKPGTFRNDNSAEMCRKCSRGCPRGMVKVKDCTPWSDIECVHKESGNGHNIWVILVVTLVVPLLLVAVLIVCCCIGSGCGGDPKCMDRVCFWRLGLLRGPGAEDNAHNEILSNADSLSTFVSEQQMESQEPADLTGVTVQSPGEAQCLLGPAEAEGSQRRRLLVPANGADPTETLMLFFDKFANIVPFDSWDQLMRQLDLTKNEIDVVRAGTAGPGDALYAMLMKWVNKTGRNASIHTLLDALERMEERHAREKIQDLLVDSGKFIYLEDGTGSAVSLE
UniProt O14763: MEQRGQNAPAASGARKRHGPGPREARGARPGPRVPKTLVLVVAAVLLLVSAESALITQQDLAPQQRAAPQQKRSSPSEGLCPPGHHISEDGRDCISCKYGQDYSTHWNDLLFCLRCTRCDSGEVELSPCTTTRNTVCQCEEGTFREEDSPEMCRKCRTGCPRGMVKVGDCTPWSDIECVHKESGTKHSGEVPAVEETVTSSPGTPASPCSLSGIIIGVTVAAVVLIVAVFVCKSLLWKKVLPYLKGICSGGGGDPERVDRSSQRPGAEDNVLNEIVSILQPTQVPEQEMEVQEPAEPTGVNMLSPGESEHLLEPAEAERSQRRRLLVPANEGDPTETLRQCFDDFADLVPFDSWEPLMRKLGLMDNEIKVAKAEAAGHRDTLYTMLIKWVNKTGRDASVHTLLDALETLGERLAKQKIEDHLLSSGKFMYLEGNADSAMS
UniProt Q13158: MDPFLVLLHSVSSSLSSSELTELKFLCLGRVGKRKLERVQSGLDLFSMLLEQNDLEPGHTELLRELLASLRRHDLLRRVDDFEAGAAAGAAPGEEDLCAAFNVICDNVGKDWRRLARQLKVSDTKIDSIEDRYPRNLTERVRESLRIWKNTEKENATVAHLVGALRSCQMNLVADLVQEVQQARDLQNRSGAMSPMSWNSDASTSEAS

Results are given in words; binding and its absence hold for the method and conditions named. A result given as binding can be weak or reduced; the word gives no strength. For part of these data: Binding seen in cells or lysates may run through a third protein.

Assay [1] addresses GST-tagged TRAIL-R1 intracellular domain (UniProt O00220). The experiment in a line: pull-down; TRAIL-R1-IcD pull downs from caspase-8 null Jurkat lysates, no exogenous procaspase-8; only the target purified.
Assay [2] has the same target. The experiment in a line: pull-down; reconstituted DISC: beads coated with purified GST-receptor-IcD (10 ug) incubated with r-FADD (5 ug) and IVT 35S procaspase-8b, 16 hr at 20 C; bead-associated FADD by SDS-PAGE/western blotting; both purified.
For assay [3], the target named is GST-tagged TRAIL-R2 intracellular domain (UniProt O14763). The assay is described as above.

As to “endogenous FADD (from UniProt Q13158 1-208)”, the binding result in assay [1] is “binds”.

For the substance “full-length recombinant FADD (from UniProt Q13158 1-208)”, the binding entry in assay [2] and in assay [3] was “binds” in each case.
